In paper PMC11412720:

Target: T1, serum apolipoprotein A1 (ApoA1)-containing lipoprotein particles (HDL fraction of fetal calf serum) (bovine (endogenous in fetal calf serum)) (UniProt P15497)
T1 sequence: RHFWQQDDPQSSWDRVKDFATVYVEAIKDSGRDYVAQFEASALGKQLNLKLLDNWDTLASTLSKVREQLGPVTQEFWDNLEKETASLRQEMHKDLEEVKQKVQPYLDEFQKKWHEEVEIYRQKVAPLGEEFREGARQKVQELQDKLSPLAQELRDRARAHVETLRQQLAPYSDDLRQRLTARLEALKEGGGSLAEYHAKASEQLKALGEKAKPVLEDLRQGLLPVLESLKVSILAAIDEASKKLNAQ
Assay: SEC; conditioned medium with 10% FCS; Superdex200 10/300 GL, PBS, 4°C; fractions TCA-precipitated and immunoblotted (same stripped blot reprobed)

binding	Substance
binds	Drosophila Hedgehog (Hh), soluble
binds	Drosophila Hh variant lacking its HS binding site (Hh^ΔHS)

Results are given in words; binding and its absence hold for the method and conditions named. A result given as binding can be weak or reduced; the word gives no strength.
